This note sets out measurements from article PMC5851652.

By UniProt entry, the sequences of proteins in these tests, tags left out. Residues count along the entry.
UniProt P03495, residues 203-237: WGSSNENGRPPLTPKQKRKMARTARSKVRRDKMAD

Read-outs that look alike come from different tables or passages of the source. Results are given in words; binding and its absence hold for the method and conditions named. In cells and extracts the contact can be indirect. For some assays here: Sequences can lack the tags named with a protein.

One assay addresses T1, human OASL-V5 WT (human) (UniProt Q15646).
T1 sequence: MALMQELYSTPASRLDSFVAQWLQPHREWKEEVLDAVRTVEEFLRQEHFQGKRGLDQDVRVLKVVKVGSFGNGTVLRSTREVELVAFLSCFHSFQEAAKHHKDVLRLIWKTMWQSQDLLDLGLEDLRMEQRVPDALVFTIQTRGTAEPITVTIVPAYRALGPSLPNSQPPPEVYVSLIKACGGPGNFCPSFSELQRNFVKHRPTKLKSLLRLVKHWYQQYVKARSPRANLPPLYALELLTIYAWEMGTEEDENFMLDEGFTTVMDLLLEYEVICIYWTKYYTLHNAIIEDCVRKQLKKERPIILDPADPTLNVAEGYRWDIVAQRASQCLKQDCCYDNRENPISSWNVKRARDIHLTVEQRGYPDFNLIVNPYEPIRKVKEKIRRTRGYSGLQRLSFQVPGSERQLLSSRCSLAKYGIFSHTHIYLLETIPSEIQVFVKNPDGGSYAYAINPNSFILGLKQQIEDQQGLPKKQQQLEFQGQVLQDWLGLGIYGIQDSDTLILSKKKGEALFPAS
In words: co-IP.

The target of assay [1] is LacZ-myc (beta-galactosidase) [β-galactosidase: P00722]. The experiment in a line: co-IP; anti-myc immunoprecipitation of RIPA lysates of co-transfected 293T cells; immunoblot with anti-V5 and anti-myc. (In general: Immunoblotting shows a protein as a band on a membrane.)
Assay [2] deals with GFP-NS1A(203-237) (influenza A/Udorn/72) (UniProt P03495). The experiment in a line: co-IP.
The target of assay [3] is LacZ-myc (beta-galactosidase) [β-galactosidase: P00722]. The experiment in a line: co-IP; anti-myc immunoprecipitation of RIPA lysates of co-transfected 293T cells; immunoblot with anti-V5 and anti-myc. The source holds these as a separate data set.

With “GFP-NS1A(203-237) (from UniProt P03495 203-237) (domain or fragment)”, the binding entry with human OASL-V5 WT (human) is “no binding”.

With “OASL E81A-V5 (from UniProt Q15646 1-514)”, the binding result in assay [1] is “no binding”.

On to “OASL E83A-V5 (from UniProt Q15646 1-514)”, for which the binding entry in assay [1] was “no binding”.

For “OASL K63E-V5 (from UniProt Q15646 1-514)”, the binding entry in assay [1] was “no binding”.

Regarding “OASL K66E-V5 (from UniProt Q15646 1-514)”, the binding entry in assay [1] is “no binding”.

In the case of “OASL N72K-V5 (from UniProt Q15646 1-514)”, the binding entry in assay [1] is reported as “no binding”.

Regarding “OASL R45E/K66E/R196E/K200E-V5 (from UniProt Q15646 1-514)”, the binding entry in assay [1] is “no binding”.

Take “OASL T152A-V5 (from UniProt Q15646 1-514)”: in assay [1], the binding result is recorded as “no binding”.

“OASL V67G-V5 (from UniProt Q15646 1-514)”: the binding result in assay [1] is given as “no binding”.

B1: human OASL-V5 WT (protein, UniProt Q15646 1-514)
chain: T1 sequence
Take B1: the binding result in assay [2] and in assay [3] was “no binding” in each case.
